Measurements published in patent US10159726B2, “Peptides, combination of peptides and scaffolds for use in immunotherapeutic treatment of various cancers” (Immatics Biotechnologies GmbH, priority 2015, dated 2018).
For part of these data: Expression values are those of the mRNA of the gene that encodes the peptide; a gene is named only where it was looked up.

How the values were obtained:
Set-up in all cases: species or system human
[1] = tested on: source genes of selected peptides; assay: Expression profiling of source genes by in-house RNAseq, tumor vs normal tissues (target coverage); settings: for Target coverage, over-expression of source gene, AML: AML (N = 7), over-expression = more than 1.5-fold higher expression on tumor vs highest-expressing relevant normal tissue; for Target coverage, over-expression of source gene, AML / Target coverage, over-expression of source gene, BRCA / Target coverage, over-expression of source gene, CLL / Target coverage, over-expression of source gene, CRC / Target coverage, over-expression of source gene, GB / Target coverage, over-expression of source gene, HCC / Target coverage, over-expression of source gene, OC / Target coverage, over-expression of source gene, OSCAR / Target coverage, over-expression of source gene, PC / Target coverage, over-expression of source gene, RCC / Target coverage, over-expression of source gene, SCLC / Target coverage, over-expression of source gene, pNSCLC: in-house RNASeq; for Target coverage, over-expression of source gene, BRCA: BRCA (N = 10); for Target coverage, over-expression of source gene, BRCA / Target coverage, over-expression of source gene, CLL / Target coverage, over-expression of source gene, CRC / Target coverage, over-expression of source gene, GB / Target coverage, over-expression of source gene, HCC / Target coverage, over-expression of source gene, OC / Target coverage, over-expression of source gene, OSCAR / Target coverage, over-expression of source gene, PC / Target coverage, over-expression of source gene, RCC / Target coverage, over-expression of source gene, SCLC / Target coverage, over-expression of source gene, pNSCLC: over-expression = more than 1.5-fold vs highest normal tissue; for Target coverage, over-expression of source gene, CLL: CLL (N = 10); for Target coverage, over-expression of source gene, CRC: CRC (N = 20); for Target coverage, over-expression of source gene, GB: GB (N = 24); for Target coverage, over-expression of source gene, HCC: HCC (N = 15); for Target coverage, over-expression of source gene, OC: OC (N = 12); for Target coverage, over-expression of source gene, OSCAR: OSCAR (N = 11); for Target coverage, over-expression of source gene, PC: PC (N = 26); for Target coverage, over-expression of source gene, RCC: RCC (N = 10); for Target coverage, over-expression of source gene, SCLC: SCLC (N = 10); for Target coverage, over-expression of source gene, pNSCLC: pNSCLC (N = 11)
[2] = tested on: source genes of selected peptides; assay: Target coverage of source genes in tumor entities based on TCGA Research Network data; settings: over-expressed = more than 2-fold above the highest 75% percentile of normal organs; for Target coverage, over-expression category of source gene, BLCA (N = 408): Bladder urothelial carcinoma; for Target coverage, over-expression category of source gene, CESC (N = 307): Cervical squamous cell carcinoma and endocervical adenocarcinoma; for Target coverage, over-expression category of source gene, HNSC (N = 521): Head and neck squamous cell carcinoma; for Target coverage, over-expression category of source gene, DLBC (N = 48): Lymphoid neoplasm diffuse large B-cell lymphoma; for Target coverage, over-expression category of source gene, MESO (N = 87): Mesothelioma
[3] = tested on: HLA-A*24 molecules of primary tumors; assay: Identification and relative LC-MS quantitation of HLA-A*24 tumor-associated peptides presented on tissue samples (XPRESIDENT presentation profiles)

Substance | Target coverage, over-expression of source gene, AML [1] | Target coverage, over-expression of source gene, BRCA [1] | Target coverage, over-expression of source gene, CLL [1] | Target coverage, over-expression of source gene, CRC [1] | Target coverage, over-expression of source gene, GB [1] | Target coverage, over-expression of source gene, HCC [1] | Target coverage, over-expression of source gene, OC [1] | Target coverage, over-expression of source gene, OSCAR [1] | Target coverage, over-expression of source gene, PC [1] | Target coverage, over-expression of source gene, RCC [1] | Target coverage, over-expression of source gene, SCLC [1] | Target coverage, over-expression of source gene, pNSCLC [1] | Target coverage, over-expression category of source gene, BLCA (N = 408) [2] | Target coverage, over-expression category of source gene, CESC (N = 307) [2] | Target coverage, over-expression category of source gene, HNSC (N = 521) [2] | Target coverage, over-expression category of source gene, DLBC (N = 48) [2] | Target coverage, over-expression category of source gene, MESO (N = 87) [2] | other results
162: peptide found in IFNG (gene looked up) (KYTSYILAF; listed as Homo sapiens) [compound 162] | I (<19% over-expression = I) | I (<19% over-expression = I) | I (<19% over-expression = I) | I (<19% over-expression = I) | I (<19% over-expression = I) | I (<19% over-expression = I) | II (20-49% = II) | I (<19% over-expression = I) | I (<19% over-expression = I) | II (20-49% = II) | I (<19% over-expression = I) | I (<19% over-expression = I) | C (>=5% of tumors above the cutoff, but <20%) | B (>=20% of tumors above the cutoff, but <50%) | C (>=5% of tumors above the cutoff, but <20%) | A (>=50% of tumors above the cutoff) | C (>=5% of tumors above the cutoff, but <20%) | Target coverage for source genes of selected peptides, GC (N = 11) ([1]; gastric cancer, share of tumors with more than 1.5-fold higher expression than the highest-expressing relevant normal tissue, in-house RNAseq): I (<19% over-expression = I); Target coverage for source genes of selected peptides, HNSCC (N = 10) ([1]; head and neck small cell carcinoma, share of tumors with more than 1.5-fold higher expression than the highest-expressing relevant normal tissue, in-house RNAseq): I (<19% over-expression = I); Target coverage for source genes of selected peptides, MEL (N = 10) ([1]; melanoma, share of tumors with more than 1.5-fold higher expression than the highest-expressing relevant normal tissue, in-house RNAseq): I (<19% over-expression = I); Target coverage for source genes of selected peptides, NHL (N = 10) ([1]; non-Hodgkin lymphoma, share of tumors with more than 1.5-fold higher expression than the highest-expressing relevant normal tissue, in-house RNAseq): II (20-49% = II); Target coverage for source genes of selected peptides, PCA (n = 10) ([1]; prostate cancer and benign prostate hyperplasia, share of tumors with more than 1.5-fold higher expression than the highest-expressing relevant normal tissue, in-house RNAseq): I (<19% over-expression = I); Target coverage for source genes of selected peptides, UBC (N = 10) ([1]; urinary bladder cancer, share of tumors with more than 1.5-fold higher expression than the highest-expressing relevant normal tissue, in-house RNAseq): I (<19% over-expression = I); Target coverage for source genes of selected peptides, UTC (N = 10) ([1]; uterine cancer, share of tumors with more than 1.5-fold higher expression than the highest-expressing relevant normal tissue, in-house RNAseq): I (<19% over-expression = I); ENTITIES ([3]; Table 9A: selected HLA-A*24-binding tumor-associated peptides, cancer entities on which the peptide was found presented): NSCLC, GC, PCA, HCC
164: peptide found in IL4I1 (gene looked up) (HYVPATKVF; listed as Homo sapiens) [compound 164] | I (<19% over-expression = I) | II (20-49% = II) | I (<19% over-expression = I) | I (<19% over-expression = I) | I (<19% over-expression = I) | I (<19% over-expression = I) | IV (>70% = IV) | III (50-69% = III) | I (<19% over-expression = I) | II (20-49% = II) | II (20-49% = II) | IV (>70% = IV) | B (>=20% of tumors above the cutoff, but <50%) | B (>=20% of tumors above the cutoff, but <50%) | B (>=20% of tumors above the cutoff, but <50%) | A (>=50% of tumors above the cutoff) | B (>=20% of tumors above the cutoff, but <50%) | Target coverage, over-expression category of source gene, CHOL (N = 36) ([2]; Cholangiocarcinoma): C (>=5% of tumors above the cutoff, but <20%); Target coverage, over-expression category of source gene, KIRP (N = 291) ([2]; Kidney renal papillary cell carcinoma): B (>=20% of tumors above the cutoff, but <50%); Peptide Presentation on cancer entities ([3]; Table 9B: selected HLA-A*24 peptides, presentation on additional cancer entities): NSCLC
